Results deposited as PubChem BioAssay AID1508597 (Cure First, 2020).
Shown is an unselected part of the about 2,100 reagents, under one of the conditions tested. 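Calls flag viability under 80% in either arm, not effects specific to rucaparib; the reference for percent is not stated.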 Unmarked entries are inactive. Some reagents were tested in more than one well and are listed for each. Not given: the 100% reference.

- Assay: 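Knock-downs altering ovarian cancer cell survival with or without PARP inhibitor rucaparib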 (primary screen)
- Cell system: human ovarian carcinoma lines grown from tumours: OCI-P5x (papillary serous) and OCI-C5x (clear cell)
- Knock-down reagent: siRNA pool against human genes, 1.25 pmol siRNA per well
- Duration: 72 h or 96 h, depending on the cell culture
- Challenge: rucaparib 20 µM (about IC30) or vehicle, present until read-out
- Rucaparib or vehicle: Vehicle
- Cell line: OCI-P5x (serous)
- Measurement: 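ATP luminescence measured at 72 or 96 h according to the culture, then normalised and expressed as percent viability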
- Scale: viability, normalised: higher = more viable cells remaining
- Hit rule: 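Active when normalised viability falls below 80 percent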
- Meaning of the calls: active = viability under 80%; inactive = viability 80% or more

| Gene | PubChem SID | technical replicate | viability, normalised (%) |
| --- | --- | --- | --- |
| PLCB3 | SID405526707 | 1 | 64.8 (active) |
| PLCB3 | SID405526707 | 2 | 52.3 (active) |
| PLCB3 | SID405526707 | 3 | 68.8 (active) |
| BTAF1 | SID405528053 | 1 | 48.2 (active) |
| BTAF1 | SID405528053 | 2 | 79.6 (active) |
| BTAF1 | SID405528053 | 3 | 55.8 (active) |
| STK17B | SID405527417 | 1 | 125 |
| STK17B | SID405527417 | 2 | 118 |
| STK17B | SID405527417 | 3 | 130 |
| KMT2A | SID405527015 | 1 | 40.6 (active) |
| KMT2A | SID405527015 | 2 | 42.3 (active) |
| KMT2A | SID405527015 | 3 | 43.3 (active) |
| APBB1 | SID405527965 | 1 | 43.4 (active) |
| APBB1 | SID405527965 | 2 | 51.5 (active) |
| APBB1 | SID405527965 | 3 | 45 (active) |
| GEMIN4 | SID405526812 | 1 | 67.3 (active) |
| GEMIN4 | SID405526812 | 2 | 78.5 (active) |
| GEMIN4 | SID405526812 | 3 | 74.9 (active) |
| RAC1 | SID405527221 | 1 | 45.6 (active) |
| RAC1 | SID405527221 | 2 | 58.8 (active) |
| RAC1 | SID405527221 | 3 | 41.5 (active) |
| MAP2K5 | SID405527778 | 1 | 53.1 (active) |
| MAP2K5 | SID405527778 | 2 | 64.3 (active) |
| MAP2K5 | SID405527778 | 3 | 80.3 |
| MCCC1 | SID405526435 | 1 | 83.7 |
| MCCC1 | SID405526435 | 2 | 84.8 |
| MCCC1 | SID405526435 | 3 | 83.7 |
| SMYD5 | SID405527350 | 1 | 71 (active) |
| SMYD5 | SID405527350 | 2 | 72.9 (active) |
| SMYD5 | SID405527350 | 3 | 72.2 (active) |
| HK3 | SID405527794 | 1 | 64.2 (active) |
| HK3 | SID405527794 | 2 | 44.3 (active) |
| HK3 | SID405527794 | 3 | 60.1 (active) |
| PHF14 | SID405527143 | 1 | 67.6 (active) |
| PHF14 | SID405527143 | 2 | 80.2 |
| PHF14 | SID405527143 | 3 | 128 |
| CDC42BPG | SID405527818 | 1 | 92.1 |
| CDC42BPG | SID405527818 | 2 | 70.3 (active) |
| CDC42BPG | SID405527818 | 3 | 68.9 (active) |
| CELF1 | SID405528095 | 1 | 52.2 (active) |
| CELF1 | SID405528095 | 2 | 65 (active) |
| CELF1 | SID405528095 | 3 | 60 (active) |
| DDX59 | SID405528203 | 1 | 70.9 (active) |
| DDX59 | SID405528203 | 2 | 70.5 (active) |
| DDX59 | SID405528203 | 3 | 57.9 (active) |
| RPS19BP1 | SID405528275 | 1 | 71.3 (active) |
| RPS19BP1 | SID405528275 | 2 | 60.3 (active) |
| RPS19BP1 | SID405528275 | 3 | 65.1 (active) |
| CECR2 | SID405526480 | 1 | 76.1 (active) |
| CECR2 | SID405526480 | 1 | 90.9 |
| CECR2 | SID405526480 | 2 | 104 |
| CECR2 | SID405526480 | 2 | 62.2 (active) |
| CECR2 | SID405526480 | 3 | 75.5 (active) |
| CECR2 | SID405526480 | 3 | 99.7 |
| MLH3 | SID405528315 | 1 | 65.6 (active) |
| MLH3 | SID405528315 | 2 | 80.3 |
| MLH3 | SID405528315 | 3 | 71.8 (active) |

6 of these entries, set out differently:
{"Gene":"PLCB3","PubChem SID":"SID405526707","technical replicate":"2","viability, normalised (%)":"52.3 (active)"}
{"Gene":"PLCB3","PubChem SID":"SID405526707","technical replicate":"3","viability, normalised (%)":"68.8 (active)"}
{"Gene":"BTAF1","PubChem SID":"SID405528053","technical replicate":"1","viability, normalised (%)":"48.2 (active)"}
{"Gene":"BTAF1","PubChem SID":"SID405528053","technical replicate":"2","viability, normalised (%)":"79.6 (active)"}
{"Gene":"BTAF1","PubChem SID":"SID405528053","technical replicate":"3","viability, normalised (%)":"55.8 (active)"}
{"Gene":"STK17B","PubChem SID":"SID405527417","technical replicate":"1","viability, normalised (%)":125}
